Data as given in the supplement of paper PMC4604168 (melanoma cell lines).
The other results are listed elsewhere or left out. Repeats are few or missing, and single values can be far off.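 Imaging used 1,536-well plates; nuclei positive for cleaved PARP by antibody were divided by total DNA-stained nuclei to yield the apoptosis fraction. Doses for screening kept most cells viable, and cell lines differ markedly in resting and induced cleaved-PARP levels.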

Test system: LOXIMVI
Experiment: cleaved PARP positive nuclei fraction relative to DMSO control; melanoma cells; higher = more apoptosis
Details: library dose: low library concentration; 72 h

| Structure (SMILES) | cleaved PARP positive nuclei fraction [%] |
| --- | --- |
| C[As](C)SC[C@H](NC(=O)CC[C@H](N)C(=O)O)C(=O)NCC(=O)O [Darinaparsin] + COc1ccc(COc2ccc(Cc3cnc(N)nc3N)cc2OC)cc1 [GW2580] (first compound 0.4 µM, partner dose 1 µM) | 92.5 |
| Cn1nnc2c(C(N)=O)ncn2c1=O [temozolomide] + C/C(O)=C(\C#N)C(=O)Nc1cc(Br)ccc1Br [LFM-A13] (first compound 2 µM, partner dose 2 µM) | 41.1 |
| Cc1cc(SCc2sc(-c3ccc(C(F)(F)F)c(F)c3)nc2C)ccc1OCC(=O)O + Oc1nc(-c2ccc(C(F)(F)F)cc2)nc2c1CSCC2 [XAV939] (first compound 2 µM, partner dose 2 µM) | 208 |
| C/C(O)=C(\C#N)C(=O)Nc1cc(Br)ccc1Br + CC(C)CCN1c2nc(Nc3cc(F)c(O)c(F)c3)ncc2N(C)C(=O)C1C [BID1870] (first compound 2 µM, partner dose 0.2 µM) | 39 |
| Cc1cc(SCc2sc(-c3ccc(C(F)(F)F)c(F)c3)nc2C)ccc1OCC(=O)O + c1cc(-c2cnn3cc(-c4ccc(OCCN5CCCCC5)cc4)cnc23)ccn1 [Dorsomorphin] (first compound 2 µM, partner dose 0.4 µM) | 18.5 |
| c1cc(-c2cnn3cc(-c4ccc(OCCN5CCCCC5)cc4)cnc23)ccn1 [Dorsomorphin] + O=C(Oc1ccc([N+](=O)[O-])cc1)N1CCC(C(O)(c2ccc3c(c2)OCO3)c2ccc3c(c2)OCO3)CC1 [JZL184] (first compound 0.4 µM, partner dose 1 µM) | 53.4 |
| C[As](C)SC[C@H](NC(=O)CC[C@H](N)C(=O)O)C(=O)NCC(=O)O [Darinaparsin] + CCCCCCCCCCCC1=C(O)C(=O)C=C(O)C1=O [Embelin] (first compound 0.4 µM, partner dose 1.2 µM) | 26.9 |
| COCC[n+]1c2c(n(Cc3cnccn3)c1C)C(=O)c1ccccc1C2=O + Cc1cc(SCc2sc(-c3ccc(C(F)(F)F)c(F)c3)nc2C)ccc1OCC(=O)O [GW0742] (first compound 0.0004 µM, partner dose 2 µM) | 34.6 |
| C/C(O)=C(\C#N)C(=O)Nc1cc(Br)ccc1Br + Cn1cc(/C=C2\C(=O)Nc3cccnc32)c2ccccc21 [GW441756] (first compound 2 µM, partner dose 0.4 µM) | 64.5 |
| C[As](C)SC[C@H](NC(=O)CC[C@H](N)C(=O)O)C(=O)NCC(=O)O [Darinaparsin] + Cc1cc(SCc2sc(-c3ccc(C(F)(F)F)c(F)c3)nc2C)ccc1OCC(=O)O [GW0742] (first compound 0.4 µM, partner dose 2 µM) | 138 |
| OCCn1cc(-c2cnc3nnn(Cc4ccc5ncccc5c4)c3n2)cn1 + Cc1cc(SCc2sc(-c3ccc(C(F)(F)F)c(F)c3)nc2C)ccc1OCC(=O)O [GW0742] (first compound 1 µM, partner dose 2 µM) | 67.5 |
| Cc1ccc(NC(=O)c2cccc(N(C)C)c2)cc1NC(=O)c1ccc(O)cc1 + C/C(O)=C(\C#N)C(=O)Nc1cc(Br)ccc1Br [LFM-A13] (first compound 2 µM, partner dose 2 µM) | 188 |
| Cc1cc(SCc2sc(-c3ccc(C(F)(F)F)c(F)c3)nc2C)ccc1OCC(=O)O + Cc1cc([N+](=O)[O-])ccc1NS(=O)(=O)c1cc(Cl)ccc1Cl [FH535] (first compound 2 µM, partner dose 1 µM) | 1100 |
| Cn1cncc1[C@@](N)(c1ccc(Cl)cc1)c1ccc2c(c1)c(-c1cccc(Cl)c1)cc(=O)n2C [tipifarnib] + C/C(O)=C(\C#N)C(=O)Nc1cc(Br)ccc1Br [LFM-A13] (first compound 0.01 µM, partner dose 2 µM) | 81 |
| Oc1nc(-c2ccc(C(F)(F)F)cc2)nc2c1CSCC2 + O=C(Oc1ccc([N+](=O)[O-])cc1)N1CCC(C(O)(c2ccc3c(c2)OCO3)c2ccc3c(c2)OCO3)CC1 [JZL184] (first compound 2 µM, partner dose 1 µM) | 36.8 |
| O=C(O)c1ccc(-c2c[nH]c3ncc(-c4ccccc4)cc23)cc1C1CCCC1 + Cc1cc(SCc2sc(-c3ccc(C(F)(F)F)c(F)c3)nc2C)ccc1OCC(=O)O [GW0742] (first compound 0.16 µM, partner dose 2 µM) | 52.1 |

A few values from the list:
Under cleaved PARP positive nuclei fraction [%], Cc1cc(SCc2sc(-c3ccc(C(F)(F)F)c(F)c3)nc2C)ccc1OCC(=O)O + c1cc(-c2cnn3cc(-c4ccc(OCCN5CCCCC5)cc4)cnc23)ccn1 [Dorsomorphin] (first compound 2 µM, partner dose 0.4 µM) has the entry 18.5
Under cleaved PARP positive nuclei fraction [%], C[As](C)SC[C@H](NC(=O)CC[C@H](N)C(=O)O)C(=O)NCC(=O)O [Darinaparsin] + CCCCCCCCCCCC1=C(O)C(=O)C=C(O)C1=O [Embelin] (first compound 0.4 µM, partner dose 1.2 µM) has the entry 26.9
